{"source": "PubChem BioAssay AID1259254 (NCATS, 2017)", "test": "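Finding genes that stop cells copying their DNA twice in one cycle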 (primary screen)", "system": "human HCT116 colorectal cancer cells", "knock-down reagent": "single siRNA against human genes", "duration": "3 days", "detection": "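Imaged Hoechst DNA stain sorts each cell into a cycle phase by DNA amount; per plate, G2 fraction set to 0% for non-targeting and 100% for GMNN siRNA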", "scale": "G2 robust z-score and G2 cells, % of GMNN control: higher = more G2 cells, more excess DNA replication", "call rule": "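An siRNA counts as active if its G2 robust z-score lies at least 5 MADs above the screen median; here such calls match roughly 38% of GMNN control or more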", "note": "The deposit covers about 59,000 reagents; below is a part drawn at random. Over the whole deposit, about 1,550 (2.6%) got an active call. 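G2 share is only a proxy for re-replication; each gene was hit by three separate siRNAs, and active genes were retested.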 Unmarked entries are inactive. Reagents against one gene are numbered here. Further read-outs or replicates are left out here. Not stated in the record: the amount of reagent."}
{"gene symbol": "SHF (Src homology 2 domain containing F)", "reagent no.": 1, "G2 robust z-score": -0.335, "G2 cells, % of GMNN control": 0.608}
{"gene symbol": "SHF (Src homology 2 domain containing F)", "reagent no.": 2, "G2 robust z-score": 0.254, "G2 cells, % of GMNN control": 4.76}
{"gene symbol": "SHF (Src homology 2 domain containing F)", "reagent no.": 3, "G2 robust z-score": -0.616, "G2 cells, % of GMNN control": -1.37}
{"gene symbol": "SKIC8 (SKI8 subunit of superkiller complex)", "reagent no.": 1, "G2 robust z-score": 0.775, "G2 cells, % of GMNN control": 8.42}
{"gene symbol": "SKIC8 (SKI8 subunit of superkiller complex)", "reagent no.": 2, "G2 robust z-score": 4.9, "G2 cells, % of GMNN control": 37.5}
{"gene symbol": "SKIC8 (SKI8 subunit of superkiller complex)", "reagent no.": 3, "G2 robust z-score": -0.0941, "G2 cells, % of GMNN control": 2.31}
{"gene symbol": "TBKBP1 (TBK1 binding protein 1)", "reagent no.": 1, "G2 robust z-score": -1.24, "G2 cells, % of GMNN control": -5.76}
{"gene symbol": "TBKBP1 (TBK1 binding protein 1)", "reagent no.": 2, "G2 robust z-score": 0.878, "G2 cells, % of GMNN control": 9.15}
{"gene symbol": "TBKBP1 (TBK1 binding protein 1)", "reagent no.": 3, "G2 robust z-score": -0.737, "G2 cells, % of GMNN control": -2.22}
{"gene symbol": "TSGA10IP (testis specific 10 interacting protein)", "reagent no.": 1, "G2 robust z-score": 1.3, "G2 cells, % of GMNN control": 12.1}
{"gene symbol": "TSGA10IP (testis specific 10 interacting protein)", "reagent no.": 2, "G2 robust z-score": 0.29, "G2 cells, % of GMNN control": 5.01}
{"gene symbol": "TSGA10IP (testis specific 10 interacting protein)", "reagent no.": 3, "G2 robust z-score": -0.904, "G2 cells, % of GMNN control": -3.39}
{"gene symbol": "TMEM150A (transmembrane protein 150A)", "reagent no.": 1, "G2 robust z-score": -1.02, "G2 cells, % of GMNN control": -4.18}
{"gene symbol": "TMEM150A (transmembrane protein 150A)", "reagent no.": 2, "G2 robust z-score": 0.704, "G2 cells, % of GMNN control": 7.92}
{"gene symbol": "TMEM150A (transmembrane protein 150A)", "reagent no.": 3, "G2 robust z-score": 1.95, "G2 cells, % of GMNN control": 16.7}
{"gene symbol": "ANKRD34C (ankyrin repeat domain 34C)", "reagent no.": 1, "G2 robust z-score": -0.538, "G2 cells, % of GMNN control": -0.818}
{"gene symbol": "ANKRD34C (ankyrin repeat domain 34C)", "reagent no.": 2, "G2 robust z-score": 0.634, "G2 cells, % of GMNN control": 7.43}
{"gene symbol": "ANKRD34C (ankyrin repeat domain 34C)", "reagent no.": 3, "G2 robust z-score": 1.22, "G2 cells, % of GMNN control": 11.6}
{"gene symbol": "ZNF826P (zinc finger protein 826, pseudogene)", "reagent no.": 1, "G2 robust z-score": 2.55, "G2 cells, % of GMNN control": 20.9}
{"gene symbol": "ZNF826P (zinc finger protein 826, pseudogene)", "reagent no.": 2, "G2 robust z-score": -0.947, "G2 cells, % of GMNN control": -3.69}
{"gene symbol": "ZNF826P (zinc finger protein 826, pseudogene)", "reagent no.": 3, "G2 robust z-score": -0.674, "G2 cells, % of GMNN control": -1.77}
{"gene symbol": "UNC13A (unc-13 homolog A)", "reagent no.": 1, "G2 robust z-score": -0.201, "G2 cells, % of GMNN control": 1.55}
{"gene symbol": "UNC13A (unc-13 homolog A)", "reagent no.": 2, "G2 robust z-score": -1.13, "G2 cells, % of GMNN control": -4.95}
{"gene symbol": "UNC13A (unc-13 homolog A)", "reagent no.": 3, "G2 robust z-score": 1.88, "G2 cells, % of GMNN control": 16.2}
{"gene symbol": "VWC2L (von Willebrand factor C domain containing 2 like)", "reagent no.": 1, "G2 robust z-score": 0.874, "G2 cells, % of GMNN control": 9.12}
{"gene symbol": "VWC2L (von Willebrand factor C domain containing 2 like)", "reagent no.": 2, "G2 robust z-score": -0.426, "G2 cells, % of GMNN control": -0.0306}
{"gene symbol": "VWC2L (von Willebrand factor C domain containing 2 like)", "reagent no.": 3, "G2 robust z-score": -0.912, "G2 cells, % of GMNN control": -3.45}
{"gene symbol": "SPANXB1 (SPANX family member B1)", "reagent no.": 1, "G2 robust z-score": 0.657, "G2 cells, % of GMNN control": 7.59}
{"gene symbol": "SPANXB1 (SPANX family member B1)", "reagent no.": 2, "G2 robust z-score": 0.184, "G2 cells, % of GMNN control": 4.26}
{"gene symbol": "SPANXB1 (SPANX family member B1)", "reagent no.": 3, "G2 robust z-score": 0.392, "G2 cells, % of GMNN control": 5.72}

Entries above whose gene name begins with A or a (3):
{"gene symbol": "ANKRD34C (ankyrin repeat domain 34C)", "reagent no.": 1, "G2 robust z-score": -0.538, "G2 cells, % of GMNN control": -0.818}
{"gene symbol": "ANKRD34C (ankyrin repeat domain 34C)", "reagent no.": 2, "G2 robust z-score": 0.634, "G2 cells, % of GMNN control": 7.43}
{"gene symbol": "ANKRD34C (ankyrin repeat domain 34C)", "reagent no.": 3, "G2 robust z-score": 1.22, "G2 cells, % of GMNN control": 11.6}
